Data: patent publication US20170081300A1, “SYDNONE DERIVATIVES FOR CONJUGATION OF COMPOUNDS OF INTEREST” (UNIVERSITE DE STRASBOURG, priority 2014, published 2017)

Test: Competitive cycloaddition of sydnone and azide 1 with BCN followed by 1H NMR
Format: physicochemical
Conditions: 0.1 mmol each of sydnone, azide 1 and BCN, CD3OD, room temperature
Method: 0.1 mmol of sydnone S1-2, azide 1
and BCN were dissolved in CD3OD at room temperature. The reaction was followed by NMR on the aromatic part of the spectrum which provides specific NMR signals.

With `O=C(O)c1ccc(-[n+]2noc([O-])c2Cl)cc1` [Sydnone S1-2, 3-(4-carboxyphenyl)-4-chloro-1,2,3λ^5-oxadiazol-3-ylium-5-olate] the “competition with azide for cyclooctyne, share in favor of the chlorosydnone” value was “more than 95%”.
